According to US20230414775A1 (priority 2021, published 2023):

Test: general procedure: solution-phase peptide synthesis
Conditions: for step yield: coupling step

Row | Substance | step yield [% yield] | further results
1 | (4S)-4-({2-[(1R,3R)-1-(acetyloxy)-3-[(2S,3S)—N-hexyl-2-{[(2R)-1-(2-hydroxyethyl)piperidin-2-yl]formamido}-3-methylpentanamido]-4-methylpentyl]-1,3-thiazol-4-yl}formamido)-5-(4-aminophenyl)-2,2-dimethylpentanoic acid (PA-8 aka PA7) | – | step yield (from 1-9d): 31% yield from 1-9d
2 | Rac-(R)-4-(2-((1S,3S)-1-acetoxy-3-((2R,3R)—N-hexyl-3-methyl-2-((S)-1-methylpiperidine-2-carboxamido)pentanamido)-4-methylpentyl)thiazole-4-carboxamido)-acid | 25 | –
3 | (4S)-4-({2-[(1R,3R)-1-(acetyloxy)-3-[(2S,3S)-2-{[(2R)-1-[2-(2-aminoethoxy)ethyl]piperidin-2-yl]formamido}-N-hexyl-3-methylpentanamido]-4-methylpentyl]-1,3-thiazol-4-yl}formamido)-5-(4-aminophenyl)-2,2-dimethylpentanoic acid (PA-14 aka PA11) | – | step yield (from 1-9e): 57% yield from 1-9e
4 | Rac-(R)-4-(2-((1S,3S)-1-ethoxy-3-((2R,3R)—N-hexyl-3-methyl-2-((S)-1-methylpiperidine-2-carboxamido)pentanamido)-4-methylpentyl)thiazole-4-carboxamido)-acid (PB-3 aka PA15) | 15 | –
5 | (S)-5-(4-aminophenyl)-4-(2-((1R,3R)-1-ethoxy-3-((2S,3S)—N-hexyl-2-((R)-1-(2-hydroxyethyl)piperidine-2-carboxamido)-3-methylpentanamido)-4-methylpentyl) thiazole-4-carboxamido)-2,2-dimethylpentanoic acid (PA-11) | 15 | –
6 | Rac-(R)-4-(2-((1S,3S)-1-acetoxy-3-((2R,3R)—N-hexyl-3-methyl-2-((S)-1-methylpiperidine-2-carboxamido)pentanamido)-4-methylpentyl)thiazole-4-carboxamido)-acid (PB-4 aka PA16) | 14 | –
7 | (4S)-4-({2-[(1R,3R)-1-(acetyloxy)-3-[(2S,3S)-2-{[(2R)-1-[({4-[(2S)-2-[(2S)-2-[1-(4-{2-azatricyclo[10.4.0.0^4,9]hexadeca-1(12),4(9),5,7,13,15-hexaen-10-yn-2-yl}-4-oxobutanamido)-3,6,9,12-tetraoxapentadecan-15-amido]-3-methylbutanamido]-5-(carbamoylamino)pentanamido]phenyl}methoxy)carbonyl]-2-methylpyrrolidin-2-yl]formamido}-N-hexyl-3-methylpentanamido]-4-methylpentyl]-1,3-thiazol-4-yl}formamido)-5-(4-amino-3-fluorophenyl)-2,2-dimethylpentanoic acid | – | conjugation yield (conjugation step): 17% yield
8 | (S)-4-(2-((1R,3R)-1-acetamido-3-((2S,3S)—N-hexyl-3-methyl-2-((R)-1-methylpiperidine-2-carboxamido)pentanamido)-4-methylpentyl)thiazole-4-carboxamido)-acid (PC-7) | – | step yield (from 9-7): 34% yield from 9-7%
9 | Rac-(R)-4-(2-((1S,3S)-1-acetoxy-3-((2R,3R)—N-hexyl-3-methyl-2-((S)-piperidine-2-carboxamido)pentanamido)-4-methylpentyl)thiazole-4-carboxamido)-5-(4-((carboxymethyl)amino)phenyl)-2,2-dimethylpentanoic acid (PB-6 aka PA17) | – | step yield (from acid 1-7): 7% yield from 1-7%
10 | (4S)-5-(4-aminophenyl)-4-(2-((3S,6R,8R)-3-((S)-sec-butyl)-5-hexyl-13,14-dihydroxy-6-isopropyl-1-((R)-1-methylpiperidin-2-yl)-1,4,10-trioxo-9-oxa-2,5,11-triazatetradecan-8-yl)thiazole-4-carboxamido)-2,2-dimethylpentanoic acid (PC-5 aka PA26) | 25 | –
11 | (S)-4-(2-((1R,3R)-1-acetoxy-3-((2S,3S)-2-((R)-1-(((4-((S)-2-((S)-2-amino-3-methylbutanamido)-5-ureidopentanamido)benzyl)oxy)carbonyl)-2-methylpyrrolidine-2-carboxamido)-N-hexyl-3-methylpentanamido)-4-methylpentyl)thiazole-4-carboxamido)-5-(4-amino-3-fluorophenyl)-2,2-dimethylpentanoic acid (10-4a) | – | step yield (from 10-2): 20% yield from 10-2%
12 | (S)-4-(2-((1R,3R)-1-acetoxy-3-((2S,3S)-2-((R)-1-(carboxymethyl)piperidine-2-carboxamido)-N-hexyl-3-methylpentanamido)-4-methylpentyl)thiazole-4-carboxamido)-5-(4-aminophenyl)-2,2-dimethylpentanoic acid (PA-13 aka PA10) | – | step yield (from 4-5): 14% yield
13 | (S)-4-(2-((1R,3R)-1-acetoxy-3-((2S,3S)-2-((R)-1-(((4-((S)-2-((S)-2-amino-3-methylbutanamido)-5-ureidopentanamido)benzyl)oxy)carbonyl)-2-methylpyrrolidine-2-carboxamido)-N-hexyl-3-methylpentanamido)-4-methylpentyl)thiazole-4-carboxamido)-5-(4-hydroxyphenyl)-2,2-dimethylpentanoic acid (10-4b) | 20 | –
14 | (S)-5-(4-(2-aminoacetamido)phenyl)-4-(2-((1R,3R)-1-ethoxy-3-((2S,3S)—N-hexyl-2-((R)-1-(2-hydroxyethyl)piperidine-2-carboxamido)-3-methylpentanamido)-4-methylpentyl) thiazole-4-carboxamido)-2,2-dimethylpentanoic acid (PA-12 aka PA9) | 30 | –
